# Measurements reported in PubChem BioAssay AID264 (DTP/NCI, 2004).
# The list is a part of this screen's results and no random one: it is rich in T/C values a quarter to a half above the control, in often repeated tests (any T/C) and in doses without a T/C. Other doses and runs of a compound stand elsewhere. T/C: endpoint of the treated group in % of that of the vehicle group. Schedule codes are those of the source, taken here to give the interval after Q, in days (D) or hours (H), and the number of doses after X. Some T/C values are followed by the survivors on the day toxicity was checked, most often the fifth; without a count, all were alive then. Some entries were tested several times; the results are listed from low to high. Some doses have a count of surviving animals in place of a T/C: the source holds a T/C of zero for them, seemingly a mark for toxic or unscored doses. Counts of survivors are from the toxicity check (mostly the fifth day) where no day follows; animals may have died later. Peptide text beside a SMILES is read from it. * marks the point of attachment. Trt = c1ccc(C(c2ccccc2)(c2ccccc2)*)cc1; Cbz = O=C(OCc1ccccc1)*
# Tested on: nude mice, LX-1 lung xenograft intrarenal, tumor weight T/C
# Assay: NCI In Vivo Anticancer Drug Screen. Data for tumor model Human Lung LX-1 Xenograft (intrarenal inoculation) in NU/NU Swiss (nude) mice
# Conditions: T/C endpoint: mean tumor weight change, higher T/C = larger tumour; for T/C: evaluated on day 11
# Outline: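 Compound-treated mice carrying transplanted tumors were compared with vehicle-treated controls. Tumor size was the measured end point, and the value is the treated-group measurement divided by the control-group measurement (T/C).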
# [1] = dose: 50.0 mg/kg/injection, schedule: Q01DX010 (sc), vehicle: saline with Tween-80
# [2] = dose: 300.0 mg/kg/injection, schedule: Q04DX003 (sc), vehicle: saline with Tween-80
# [3] = dose: 600.0 mg/kg/injection, schedule: Q04DX003 (sc), vehicle: saline with Tween-80
smiles,measurement,setting,value
OCCCN1CCCCC1CO (configuration not stated),T/C,"dose: 400.0 mg/kg/injection, schedule: Q04DX003 (sc), vehicle: saline",126 % of control
same,T/C,"dose: 800.0 mg/kg/injection, schedule: Q04DX003 (sc), vehicle: saline",149 % of control
same,T/C,"dose: 1600.0 mg/kg/injection, schedule: Q04DX003 (sc), vehicle: saline",135 % of control [5 of 6 alive on day 11]
O=[N+]([O-])c1ccc(Sc2ccncn2)c([N+](=O)[O-])c1,T/C,"dose: 150.0 mg/kg/injection, schedule: Q04DX003 (sc), vehicle: saline with Tween-80",125 % of control
Cc1cc(NCCCCCCCNc2cc(C)nc3cc(N)ccc23)c2ccc(N)cc2n1,T/C,"dose: 12.5 mg/kg/injection, schedule: Q01DX010 (sc), vehicle: saline with Tween-80","59, 63, 73, 73 [2 of 2 alive on day 11], 114 % of control"
same,T/C,"dose: 25.0 mg/kg/injection, schedule: Q01DX010 (sc), vehicle: saline with Tween-80","24, 40, 51 [2 of 2 alive on day 11], 54 [2 of 2 alive on day 11], 77 % of control"
same,T/C,[1],"2 [2 of 3 alive on day 11], 9 [2 of 3 alive on day 11], 35 % of control [5 of 6 alive on day 11]"
same,survivor count,[1],2 of 6 on day 11 and 2 of 4 on day 11
same,survivor count,"dose: 100.0 mg/kg/injection, schedule: Q01DX010 (sc), vehicle: saline with Tween-80","0 of 3 on day 11, 0 of 6 on day 11, 2 of 6 on day 11"
CN(Cc1cnc2nc(N)nc(N)c2n1)c1ccc(C(=O)N[C@@H](CCC(=O)O)C(=O)O)cc1,survivor count,"dose: 4.0 mg/kg/injection, schedule: Q01DX010 (sc), vehicle: sodium bicarbonate",1 of 3 on day 11
CC(=O)NCCCCCCNC(C)=O,survivor count,"dose: 6400.0 mg/kg/injection, schedule: Q01DX010 (sc), vehicle: saline",2 of 6 on day 11
COc1cc(Cc2nccc3cc(OC)c(OC)cc23)c(C(C)=O)c(OC)c1,survivor count,"dose: 320.0 mg/kg/injection, schedule: Q01DX010 (sc), vehicle: saline",1 of 3 on day 11
C[Si](C)(C)OSc1ccccc1[N+](=O)[O-],T/C,"dose: 1200.0 mg/kg/injection, schedule: Q04DX003 (sc), vehicle: Klucel (hydroxypropylcellulose) (HPC)",145 % of control
COC(=O)C(CSC(c1ccccc1)(c1ccccc1)c1ccccc1)NC(=O)C(CC(N)=O)NC(=O)OCc1ccccc1 (stereo not drawn) (Cbz-Asn-Cys(Trt)-OMe; configuration not given here),T/C,"dose: 600.0 mg/kg/injection, schedule: Q04DX003 (sc), vehicle: distilled water + Tween-80",132 % of control
O=NN(CCCl)C(=O)Oc1cc(Cl)c(Cl)cc1Cl,T/C,"dose: 150.0 mg/kg/injection, schedule: Q04DX003 (sc), vehicle: Klucel (hydroxypropylcellulose) (HPC)",126 % of control [5 of 6 alive on day 11]
CCC1(O)CC2CN(CCc3c([nH]c4ccccc34)C(C(=O)OC)(c3cc4c(cc3OC)N(C)C3C(O)(C(=O)NCCSSCCNC(=O)C5(O)C(O)C6(CC)C=CCN7CCC8(c9cc(C%10(C(=O)OC)CC%11CN(CCc%12c%10[nH]c%10ccccc%12%10)CC(O)(CC)C%11)c(OC)cc9N(C)C58)C76)C(O)C5(CC)C=CCN6CCC43C65)C2)C1 (configuration not stated),T/C,"dose: 3.0 mg/kg/injection, schedule: Q04DX003 (sc), vehicle: suspension in saline",132 % of control
N=C(N)CCCCCCCCC(=N)N,survivor count,"dose: 37.5 mg/kg/injection, schedule: Q04DX003 (sc), vehicle: saline",0 of 6 on day 11
COc1cc2cc3c4cc(OC)c(OC)cc4cc[n+]3c(C)c2cc1OC (tested in a mixture with another compound),T/C,"dose: 25.0 mg/kg/injection, schedule: Q01DX010 (sc), vehicle: saline",148 % of control
same,survivor count,"dose: 200.0 mg/kg/injection, schedule: Q01DX010 (sc), vehicle: saline",0 of 3 on day 11
COc1ccc([I+]c2cccc(Cl)c2)cc1Cl,survivor count,"dose: 2400.0 mg/kg/injection, schedule: Q04DX003 (sc), vehicle: saline with Tween-80",2 of 6 on day 11
CCCCCCCCCCCCCCCCP(=O)(OCCOCCCCCC)OCCOCCCCCC,T/C,"dose: 600.0 mg/kg/injection, schedule: Q04DX003 (sc), vehicle: saline",137 % of control [4 of 6 alive on day 11]
CCCCCCCCCCCCCCCC(=O)OCC1OC(n2ccc(N)nc2=O)C(O)C1O (configuration not stated),T/C,"dose: 50.0 mg/kg/injection, schedule: Q04DX003 (sc), vehicle: saline with Tween-80",130 % of control
same,T/C,"dose: 100.0 mg/kg/injection, schedule: Q04DX003 (sc), vehicle: saline with Tween-80",134 % of control
same,survivor count,[2],2 of 6 on day 11
same,survivor count,"dose: 400.0 mg/kg/injection, schedule: Q04DX003 (sc), vehicle: saline with Tween-80",1 of 3 on day 11
same,survivor count,[3],0 of 6 on day 11
N#CC(=C1C=CC(=NO)C=C1)c1ccc(Cl)cc1,T/C,[2],144 % of control
same,T/C,[3],143 % of control
CC(C)CCCCCCCCCCCCC(=O)NCC(=O)NC1C(O)C(O)C(Nc2ncnc3nc[nH]c23)OC1C(O)CO (configuration not stated),survivor count,"dose: 1.56 mg/kg/injection, schedule: Q01DX010 (sc), vehicle: saline",1 of 3 on day 11
same,survivor count,"dose: 3.13 mg/kg/injection, schedule: Q01DX010 (sc), vehicle: saline",0 of 3 on day 11
same,survivor count,"dose: 3.2 mg/kg/injection, schedule: Q01DX010 (sc), vehicle: saline",0 of 3 on day 11
same,survivor count,"dose: 6.25 mg/kg/injection, schedule: Q01DX010 (sc), vehicle: saline",0 of 3 on day 11
same,survivor count,"dose: 12.5 mg/kg/injection, schedule: Q01DX010 (sc), vehicle: saline",0 of 3 on day 11
CC1=C(/C=C/C(C)=C/C=C/C(C)=C/CO)C(C)(C)CCC1,T/C,"dose: 200.0 mg/kg/injection, schedule: Q04DX003 (sc), vehicle: saline with Tween-80",128 % of control
ClCC[Se](Cl)(Cl)c1ccccc1,survivor count,"dose: 100.0 mg/kg/injection, schedule: Q04DX003 (sc), vehicle: saline",2 of 6 on day 11
Brc1ccc(C[N+]23CN4CN(CN(C4)C2)C3)cc1,survivor count,"dose: 1200.0 mg/kg/injection, schedule: Q04DX003 (sc), vehicle: saline with Tween-80",1 of 6 on day 11
CCCCCCCCCCCCCCCC(=O)Nc1ccn(C2OC(CO)C(O)C2O)c(=O)n1 (configuration not stated),survivor count,"dose: 1200.0 mg/kg/injection, schedule: Q04DX003 (sc), vehicle: water",2 of 6 on day 11
same,survivor count,"dose: 2400.0 mg/kg/injection, schedule: Q04DX003 (sc), vehicle: water",0 of 6 on day 11
OCCOCCN1CCN(CCCN2c3ccccc3Sc3ccc(C(F)(F)F)cc32)CC1,T/C,"dose: 1.5 mg/kg/injection, schedule: Q01DX010 (sc), vehicle: saline",129 % of control
same,T/C,"dose: 12.0 mg/kg/injection, schedule: Q01DX010 (sc), vehicle: saline",133 % of control
same,T/C,"dose: 24.0 mg/kg/injection, schedule: Q01DX010 (sc), vehicle: saline",125 % of control
same,survivor count,"dose: 96.0 mg/kg/injection, schedule: Q01DX010 (sc), vehicle: saline",0 of 3 on day 11
